Data on 19 molecules can be found in the supplement of paper PMC7024190.

Where a name gives a salt, the structure may show the parent alone. This is one part of the list. Single values are uncertain here, since repeats match poorly.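 Human embryonic kidney cells were transiently transfected with a plasmid bearing a Renilla luciferase gene under the HSV-TK promoter. This first-round screen tests roughly ten thousand compounds for ones that increase reporter output.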

This test relates to HEK 293FT. Nature of the test: log relative Renilla luciferase luminescence (reporter expression vs reference, reference not stated) (log (base not stated)); higher = higher recombinant reporter expression. To be noted: 10 µM; time after transfection 48 h.
On to `CCS(=O)(=O)CCn1c([N+](=O)[O-])cnc1C` [tinidazole], for which the log is 0.133.
Under `N#C[C@@H]1C[C@@H]2C[C@@H]2N1C(=O)[C@@H](N)C12CC3CC(CC(O)(C3)C1)C2` [saxagliptin] stands -0.144; under `CCCCOc1cc(C(=O)NCCN(CC)CC)c2ccccc2n1` [dibucaine hydrochloride], -0.0946; under `CC[C@H]1OC(=O)[C@H](C)C(=O)[C@H](C)[C@@H](O[C@@H]2O[C@H](C)C[C@H](N(C)C)[C@H]2O)[C@](C)(OC)C[C@@H](C)C(=O)[C@H](C)[C@H]2N(CCCCn3cnc(-c4cccnc4)c3)C(=O)O[C@]12C` [telithromycin], 0.0409.
Next, `C[C@@]12C[C@@]3(O)O[C@@H](O1)[C@]1(COC(=O)c4ccccc4)[C@H]3C[C@@]12O[C@@H]1O[C@H](CO)[C@@H](O)[C@H](O)[C@H]1O` [peoniflorin]: 0.0481; `CCC1=C(C)CN(C(=O)NCCc2ccc(S(=O)(=O)NC(=O)N[C@H]3CC[C@H](C)CC3)cc2)C1=O` [glimepiride]: 0.0405.
Next, `Sc1nc2ccccc2s1` [2-mercaptobenzothiazole]: 0.0292.
Regarding `COc1ccc2cc1Oc1ccc(cc1)C[C@H]1c3cc(c(OC)cc3CCN1C)Oc1c(OC)c(OC)cc3c1[C@H](C2)N(C)CC3` [tetrandrine], the log stood at 0.0215.
Next, `CC(=O)OCC(=O)[C@@]12N=C(C)O[C@@H]1C[C@H]1[C@@H]3CCC4=CC(=O)C=C[C@]4(C)[C@H]3[C@@H](O)C[C@@]12C` [deflazacort]: -0.111; `COc1ccc(C(=O)/C=C/c2ccccc2)cc1` [4'-methoxychalcone]: 0.0513.
Next, `CC(C)CCC[C@@H](C)[C@H]1CC[C@H]2[C@@H]3C=CC4=CC(=O)CC[C@]4(C)[C@H]3CC[C@]12C` [cholest-4,6-dien-3-one]: 0.0663.
On to `CNCCC(Oc1ccc(C(F)(F)F)cc1)c1ccccc1` (centres undefined) [fluoxetine], for which the log came out at 0.21.
Consider `Cc1nc2n(c(=O)c1CCN1CCC(c3noc4cc(F)ccc34)CC1)CCCC2` [risperidone], for which the log came to 0.138.
On to `CC(=O)Nc1ccc(CC(=O)O)cc1` [actarit], for which the log amounted to 0.00487.
`C=C1C(=O)O[C@@H]2C[C@@]3(C)CCC[C@H](C)C3=C[C@H]12` [helenine]: the log turned out to be 0.0233.
Next, `CCN1CC(CCN2CCOCC2)C(c2ccccc2)(c2ccccc2)C1=O` (centres undefined) [doxapram hydrochloride]: 0.00957; `CCCCNC(=O)NS(=O)(=O)c1ccc(C)cc1` [tolbutamide]: 0.156.
Under `O=C(O)c1cc(-c2ccc(F)cc2F)ccc1O` [diflunisal] stands -0.0818; under `CC(=O)[C@H]1CC[C@H]2[C@@H]3C[C@H](C)C4=CC(=O)CC[C@]4(C)[C@H]3[C@@H](O)C[C@]12C` [medrysone], -0.107.
